Measured values taken from PubChem BioAssay AID1159568 (Broad Institute, 2015).
The inconclusive results got no clear call from the source; some entries with a clear call stand among them for comparison. Active and inactive are the calls of the source.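 Rule for the calls: active = signal loss with an EC50 at or below twice the highest valid dose for that sample; inconclusive = flat curve with 30 to 70% inhibition, or poor fit; inactive = the rest.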

Test: Dd2 parasite growth inhibition in erythrocytes – SYBR Green, dry powder samples, set 9, dose response (AID 1159568)
Settings: P. falciparum Dd2 in erythrocytes, 72 h; at 19.5 µM (top of the series) unless noted

| SMILES | activity change, negative = inhibition |
| --- | --- |
| COc1ccc(NC(=O)N(C)C[C@H]2Oc3ccc(NC(=O)Nc4cccc5ccccc45)cc3CC(=O)N([C@@H](C)CO)C[C@@H]2C)cc1 | inconclusive: -44.6% |
| N#C[C@H]1N[C@H](CO)[C@H]1c1ccc(C#Cc2ccccc2F)cc1 | inconclusive: -19% [at 6.8 µM] |
| N#C[C@H]1[C@@H](c2ccc(-c3cccnc3)cc2)[C@@H](CO)N1C(=O)Nc1ccc(F)cc1 | inconclusive: -23.3% |
| COc1ccc(NC(=O)N(C)C[C@H]2Oc3ccc(NC(=O)CCN4CCOCC4)cc3C(=O)N([C@H](C)CO)C[C@@H]2C)cc1 | inactive: -2.62% |
| O=C(C[C@H]1CC[C@@H]2[C@H](COC[C@H](O)CN2Cc2ccc(C(F)(F)F)cc2)O1)N1CCc2ccccc2C1 | inconclusive: -52.9% |
| COc1ccc2c3c([nH]c2c1)[C@@H](CO)N(S(C)(=O)=O)CC31CCN(C(=O)Nc2ccccc2)CC1 | inconclusive: -86.6% |
| COc1ccc(C(=O)N2C[C@@H]3[C@H](c4ccccc42)[C@H](CO)N3C(=O)Cc2ccccn2)cc1 | inconclusive: -38.6% [at 21 µM] |
